# Laboratory results as given in the supplement of paper PMC12067093, “Discovery and optimisation of a covalent ligand for TRIM25 and its application to targeted protein ubiquitination” (Chemical Science, 2025).
# Amino acid sequences for entries named in this document (tags omitted). A change or cut given only in a name is not applied to a line headed by its entry.
# UniProt Q9P260: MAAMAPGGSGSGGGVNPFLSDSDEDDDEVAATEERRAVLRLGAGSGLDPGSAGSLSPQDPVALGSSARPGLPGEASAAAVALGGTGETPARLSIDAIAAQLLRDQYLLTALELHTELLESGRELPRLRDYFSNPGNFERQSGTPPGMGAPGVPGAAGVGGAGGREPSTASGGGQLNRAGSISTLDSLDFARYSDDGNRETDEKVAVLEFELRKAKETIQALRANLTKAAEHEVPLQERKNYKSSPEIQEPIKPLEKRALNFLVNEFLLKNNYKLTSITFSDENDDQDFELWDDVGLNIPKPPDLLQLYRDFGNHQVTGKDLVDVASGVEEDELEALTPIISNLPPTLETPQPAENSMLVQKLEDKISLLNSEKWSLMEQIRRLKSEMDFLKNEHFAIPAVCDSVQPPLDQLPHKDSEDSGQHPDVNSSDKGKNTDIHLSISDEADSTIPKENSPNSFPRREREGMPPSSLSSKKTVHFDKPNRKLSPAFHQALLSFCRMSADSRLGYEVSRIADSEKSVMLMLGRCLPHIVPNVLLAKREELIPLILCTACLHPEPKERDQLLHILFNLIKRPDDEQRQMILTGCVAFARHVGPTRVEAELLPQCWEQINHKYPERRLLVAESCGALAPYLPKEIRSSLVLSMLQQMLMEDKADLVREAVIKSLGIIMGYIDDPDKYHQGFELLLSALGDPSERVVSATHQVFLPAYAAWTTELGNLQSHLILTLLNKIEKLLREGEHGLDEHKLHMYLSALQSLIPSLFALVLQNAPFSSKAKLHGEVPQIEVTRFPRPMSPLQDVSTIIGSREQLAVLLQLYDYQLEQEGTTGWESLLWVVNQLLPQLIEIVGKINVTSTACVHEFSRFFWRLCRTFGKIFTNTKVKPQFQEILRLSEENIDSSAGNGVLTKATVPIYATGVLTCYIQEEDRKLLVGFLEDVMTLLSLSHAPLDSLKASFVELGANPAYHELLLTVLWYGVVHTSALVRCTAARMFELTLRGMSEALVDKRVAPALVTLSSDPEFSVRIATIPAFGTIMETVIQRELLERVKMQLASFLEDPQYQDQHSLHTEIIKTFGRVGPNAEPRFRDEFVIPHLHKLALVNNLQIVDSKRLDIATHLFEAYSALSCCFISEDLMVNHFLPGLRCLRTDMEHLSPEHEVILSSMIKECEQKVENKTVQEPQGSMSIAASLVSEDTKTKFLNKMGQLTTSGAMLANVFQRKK
# This is one part of the list.
# Target: RELCH_Q9P260_526_CLPHIVPNVLLAK (UniProt Q9P260)
# Assay: probe-labelled cysteine peptide fold change vs DMSO (competition) (log2 fold change); higher = less target engagement (more negative = stronger competition)
# Settings: THP-1, incubation time: 4 h
# 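Also: competitive profiling in live THP-1 cells: cysteine peptides tagged with an iodoacetamide desthiobiotin (IA-DTB) probe, intensity after compound treatment relative to DMSO-treated cells.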
smiles,measurement,setting,value
Cc1cc(C(=O)N2CCCN(C(=O)CCl)CC2)ccc1-c1ccccc1 [compound 10],probe-labelled cysteine peptide fold change,10 µM,0.06
same,probe-labelled cysteine peptide fold change,50 µM,0.174
